Results published in publication PMC6868145.
Results are given in words; binding and its absence hold for the method and conditions named. Binding seen in cells or lysates may run through a third protein. Some entries that bind do so weakly or less than the wild type.

By UniProt entry, the sequences of proteins in these tests, tags left out. Where a name states a change or a piece, a line headed by the entry shows the natural chain unless it says otherwise. Chains listed by the source or under a name are the forms on record and can include a tag or linker.
PAK1-full (full-length PAK1), tagged with eGFP or mCherry (Q13153-2, form named): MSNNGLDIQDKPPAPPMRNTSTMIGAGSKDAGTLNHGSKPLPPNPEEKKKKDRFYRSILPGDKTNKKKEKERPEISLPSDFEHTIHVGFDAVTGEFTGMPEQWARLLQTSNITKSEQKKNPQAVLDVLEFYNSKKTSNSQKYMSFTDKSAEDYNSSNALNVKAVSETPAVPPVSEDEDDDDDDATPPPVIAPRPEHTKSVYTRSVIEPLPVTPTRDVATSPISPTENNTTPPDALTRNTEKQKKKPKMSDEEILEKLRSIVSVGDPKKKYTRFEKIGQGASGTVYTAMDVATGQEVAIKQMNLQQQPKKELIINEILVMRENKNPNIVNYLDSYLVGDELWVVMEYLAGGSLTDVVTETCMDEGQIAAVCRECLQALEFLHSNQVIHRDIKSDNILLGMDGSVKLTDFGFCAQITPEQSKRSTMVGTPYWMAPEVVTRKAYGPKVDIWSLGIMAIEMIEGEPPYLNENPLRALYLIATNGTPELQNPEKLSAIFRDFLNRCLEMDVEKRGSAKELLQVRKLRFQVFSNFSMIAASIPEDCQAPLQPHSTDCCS
UniProt Q13177: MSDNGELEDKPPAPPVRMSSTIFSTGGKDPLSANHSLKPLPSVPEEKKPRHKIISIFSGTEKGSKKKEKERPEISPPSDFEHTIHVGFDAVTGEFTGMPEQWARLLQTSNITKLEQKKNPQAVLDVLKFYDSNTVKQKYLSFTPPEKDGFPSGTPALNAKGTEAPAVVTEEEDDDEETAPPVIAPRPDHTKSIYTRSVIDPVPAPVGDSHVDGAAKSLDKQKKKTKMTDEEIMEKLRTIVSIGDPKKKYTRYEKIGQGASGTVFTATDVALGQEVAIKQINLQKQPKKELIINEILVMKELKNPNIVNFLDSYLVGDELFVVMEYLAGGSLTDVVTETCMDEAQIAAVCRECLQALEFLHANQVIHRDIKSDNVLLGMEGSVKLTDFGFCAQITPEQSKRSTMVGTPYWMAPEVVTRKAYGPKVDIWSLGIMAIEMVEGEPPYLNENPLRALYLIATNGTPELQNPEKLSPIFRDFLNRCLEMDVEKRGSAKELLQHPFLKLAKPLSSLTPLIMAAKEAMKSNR

Columns and labels:
[1] = target: PAK1-full (full-length PAK1), tagged with eGFP or mCherry (human) (UniProt Q13153); assay: co-IP; HEK293T cells co-transfected with eGFP- and mCherry-tagged PAK isoforms; GFP- or RFP-Trap nanobody beads, 1 h at 4 °C; lysis buffer 10 mM Tris/Cl pH 7.5, 150 mM NaCl, 0.5 mM EDTA, 0.5% NP-40; co-precipitate detected through the complementary label (anti-RFP or anti-GFP blot); PAK1-full with PAK2 also tested with inverse labelling and after Q-VD-OPh pretreatment
[2] = target: PAK2, tagged with eGFP or mCherry (human) (UniProt Q13177); assay: as above

| Substance | binding [1] | binding [2] |
| --- | --- | --- |
| PAK1-full (full-length PAK1), tagged with eGFP or mCherry (from UniProt Q13153-2 1-553) (enzyme) | binds | – |
| PAK2, tagged with eGFP or mCherry (from UniProt Q13177 1-524) (enzyme) | binds | binds |
